Assay results published in article PMC11014436.

The chains behind the UniProt entries cited, without tags or fusion partners. Where a name states a change or a piece, a line headed by the entry shows the natural chain unless it says otherwise.
UniProt Q9NP72: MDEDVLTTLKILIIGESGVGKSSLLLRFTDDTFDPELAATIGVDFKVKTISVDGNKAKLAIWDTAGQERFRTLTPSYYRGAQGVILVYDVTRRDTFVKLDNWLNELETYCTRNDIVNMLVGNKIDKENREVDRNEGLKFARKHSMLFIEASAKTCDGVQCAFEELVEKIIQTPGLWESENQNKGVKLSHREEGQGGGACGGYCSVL
UniProt P11142: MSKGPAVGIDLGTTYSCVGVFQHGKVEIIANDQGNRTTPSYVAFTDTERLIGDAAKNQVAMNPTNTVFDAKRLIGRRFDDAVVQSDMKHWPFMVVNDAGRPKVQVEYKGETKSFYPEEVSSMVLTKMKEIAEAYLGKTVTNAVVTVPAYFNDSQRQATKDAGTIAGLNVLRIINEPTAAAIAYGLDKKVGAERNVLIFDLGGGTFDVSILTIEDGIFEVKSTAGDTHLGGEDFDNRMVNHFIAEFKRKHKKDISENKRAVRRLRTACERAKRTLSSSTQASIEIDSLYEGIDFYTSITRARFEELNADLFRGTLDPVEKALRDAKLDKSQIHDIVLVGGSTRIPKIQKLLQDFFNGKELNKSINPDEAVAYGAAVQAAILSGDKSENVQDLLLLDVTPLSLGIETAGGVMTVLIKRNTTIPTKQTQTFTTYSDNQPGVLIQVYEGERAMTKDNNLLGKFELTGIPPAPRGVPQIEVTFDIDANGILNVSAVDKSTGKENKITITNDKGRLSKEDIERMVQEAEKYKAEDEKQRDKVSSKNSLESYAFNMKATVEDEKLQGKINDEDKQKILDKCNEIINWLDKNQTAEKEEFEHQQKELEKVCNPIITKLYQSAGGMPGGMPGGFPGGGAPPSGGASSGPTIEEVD

Tests used:
[1] = biological target: GST-RAB18 with the Switch II domain deleted (UniProt Q9NP72); test: pull-down; in vitro affinity isolation: GST-tag purification resin, 1 nM His-tagged protein with 1 nM GST fusion protein in 500 μL PBS + 1% Triton X-100, 45 min at 4°C; five washes; immunoblot; both purified
[2] = biological target: RAB18-FLAG lacking the Switch II domain (UniProt Q9NP72); test: co-IP; HEK293T cells co-transfected for 24 h; lysis buffer PBS, 1% NP-40, 5 mM EDTA, 5 mM EGTA; Sepharose with IgG, anti-FLAG or anti-HA mAb for 4 h; immunoblot

Row | binding [1] | binding [2] | Substance
1 | no binding (tested: 1 nM) | – | His-SUMO-HSPA8 (from UniProt P11142 1-646)
2 | – | no binding | HSPA8-HA (from UniProt P11142 1-646)

These are yes or no findings as the source states them, for the method shown. For some assays here: Binding seen in cells or lysates may run through a third protein.
